Reference: PubChem BioAssay AID1508600 (Functional Genomics Laboratory (NCATS/FGL), 2020)
The campaign covered roughly 53,000 sequences. About 3,700 (7%) were called active.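 The calls were made as follows: active = gene knockdowns whose robust z-score for IL-1 alpha signal is at least 2 or at most -2, so actives lie on both sides; inactive = the rest.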 Some of the results follow.

experiment: Components of the Cytosolic LPS Sensing Pathway: Gene Identification via Genome-wide siRNA Screen; conditions: RAW264.7 macrophages, IL-1a HTRF, actives lie on both sides, screened at 100 nM (by protocol), cells primed 5 h with Pam3CSK4 first;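 also: robust z of the log signal after scaling to non-targeting control siRNA wells of the plate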
Summary of the method: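 RAW264.7; siRNA 100 nM final, RNAiMAX, 48h 37 degrees C; Pam3CSK4 5 h; LipidA + TransIT-TKO 24 h; IL-1a HTRF; CellTiter-Glo viability; robust z vs negative-control median.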

| Sequence | z-score |
| --- | --- |
| AAACUUGGCGUAUCAGGAATT against Gm3696 | inactive: -1.45 |
| GGAGCUUAUGUUCAAAAUATT against Nasp | inactive: 1.79 |
| GGGCUACUUAAUGAGUUACTT against Polg2 | inactive: 1.03 |
| CCAUACAGGGUUAGCUCAUTT against Gm10439 | inactive: -1.89 |
| GGAGAUGGAAGCUAUUUUCTT against Hoxb1 | inactive: -0.169 |
| CCUCUCAGUGGUUGAAAUGTT against Wdr5 | active: -2.46 |
| GGAUGUCAAAGUCUUUAGUTT against Grb10 | inactive: 1.22 |
| GGAGAAGAUAGUCUGGGUCTT against Bcas3 | inactive: 0.624 |
| CGAUGUCAAUGUACUAAUUTT against Rhov | inactive: 0.155 |
| GGUCAAGUAUGAUGCUGAUTT against Fam185a | inactive: -1.38 |
| GGAAUGACAAGCUGAAGAUTT against Zbtb7b | inactive: 0.982 |
| GUGAAAACCGCCAGAUGAATT against Vmn1r19 | inactive: 1.2 |
| GGGAUAUCUAAUCAAAACCTT against St8sia5 | inactive: -0.131 |
| CGGCAACCGGCACUAUAAATT against Pnoc | inactive: 0.231 |
| GCCGGCAGUAAAGAUUCAUTT against Cog2 | inactive: 0.938 |
| GGAUUUCUUCUUUAUCAAGTT against Lrriq3 | inactive: -1.11 |
| GCCUCCUAGAUGAUAUCAGTT against Socs7 | inactive: -1.02 |
| GGAAUUAAGAUCACUCACUTT against Cel | inactive: -1.94 |
| GGAAGGAGAAGGGUAGCAATT against Samd14 | inactive: 0.909 |
| UACCCAUUGUCAAGUUGGATT against Grm4 | inactive: -0.634 |
| GGAGUACCUGGACAUUGUGTT against Dus1l | inactive: 0.844 |
| GGAACGCAAAGAUGACCGUTT against Rnf20 | inactive: 1.46 |
| GCAGGUAAAGGCUCUUAUUTT against Rcbtb1 | inactive: 1.78 |

| Sequence | z-score |
| --- | --- |
| GGUACCCAUAUGCAGAGGUTT against A830039N20Rik | inactive: -1.24 |
| CGUGUUAGAAUAAAAACACTT against Acaa2 | inactive: 0.437 |
| GCUUUGUGUGUUGGUCUCGTT against Aup1 | inactive: -0.498 |
| GGAUUUAUUAGCCUACCUUTT against Ctnna2 | inactive: 1.26 |
| GGGUUUGCUUUUGUUGAGUTT against Ppie | inactive: -1.77 |
| GCCUUACCAUACCAUGGAGTT against Vangl2 | inactive: -0.546 |
| CCUUAUCUUGGUAUACAAUTT against Eif3a | inactive: 0.985 |
| CCAGAUAGGUAAAAAACAATT against Acta2 | inactive: -0.562 |
| GGAUCCUCACCAAGAUUACTT against Mrps22 | inactive: 0.391 |
| GGAAAAUCCCUUGGUGAAATT against Slc5a11 | inactive: -1.06 |
| GGCAUCUCUUCCAAGUUGGTT against Mzt1 | inactive: 1.69 |
| GGUUUCCAGUGCAUACUUUTT against Taf1b | inactive: 0.655 |
| GCGAUACUCCUAAAACAUATT against Btnl9 | inactive: 0.831 |
| CGUGUGUUUUACCCUAAAATT against Zfp947 | inactive: 0.404 |
| GGAUAUGAAAGUUCUUGAUTT against Akr1c21 | inactive: 1.44 |
| GGUACUGGAACAAAAGAAATT against Stk38l | inactive: -0.419 |
| CGGAGUUAACAAGAAGUGATT against Loxl4 | inactive: -0.255 |
| GGAAGAAGUAGCUAAAAACTT against Entpd4 | inactive: 0.488 |
| CGACAACCACUUCAACUAUTT against Chn2 | inactive: 1.34 |
| GGAGAAAGCAGCAAGUACATT against Olig3 | inactive: -0.244 |
| GCCAGUUUGUUACACGCAATT against Fam135a | inactive: 1.28 |
| GGCUGAAAUAAAACAAGAATT against Use1 | inactive: -0.778 |
| GGUCAAUGUACUACUUCUUTT against Olfr659 | inactive: -0.154 |

| Sequence | z-score |
| --- | --- |
| UCCAUUUAGUUGGUGGAGUTT against Olfr1303 | inactive: 0.817 |
| GGAGCUAGGCUGCUCUAUUTT against Serpina9 | inactive: 0.0986 |
| CCGGGAAAGAACUCCUAAGTT against Wnt8b | inactive: 0.0331 |
| GGUGUCCUUUCAAGUUGAUTT against Spg11 | active: 2.15 |
| GAAUCCUACGGUUGAAUAUTT against Prmt3 | inactive: -0.432 |
| GGCUAAAGUCAUCUUCUGGTT against Il20ra | inactive: -0.82 |
| GCACUGAACUUUGUCGAUUTT against Fam122a | inactive: 0.325 |
| GGUUCUGUGCAAUUUUUAGTT against Dgcr2 | inactive: 0.643 |
| GGACGGAUCUUGUAAAUACTT against Ctsl | inactive: -1.14 |
| GCAUCGCUAAGUCCGUCUUTT against Aqp4 | inactive: -0.1 |
| GGCUUCAUUUUAAUAGUGATT against Zdhhc21 | inactive: 0.00141 |
| GGGAAACUCUGCAUGAGUATT against Tenm1 | inactive: -0.137 |
| GGGUUUUGUUUUCCUUCUUTT against Usp39 | inactive: 0.0801 |
| GGGCUGCUGAUACAAACAATT against Trdmt1 | inactive: 0.0633 |
| GGUUUGCAUUGUCGGCCAUTT against Gls2 | inactive: -0.8 |
| CGAUCCUUCUGUCCUGGAUTT against Tmc8 | inactive: 1.94 |
| GCCUUACUACUACAACAACTT against Prpf40b | active: 2.08 |
| CCUGGUAGUCAGUUUUUGUTT against Lactb | inactive: 0.268 |
| GGUUGGAGAUCUCAUCUAUTT against Exosc3 | inactive: 0.699 |
| GCUUCUGAUAGAUCAUAAGTT against Aoc3 | inactive: -0.276 |
| GAAGUGUGCCAAGGACUGUTT against Mt3 | inactive: 0.603 |
| CCUCAAGGCAGUUCAUAUUTT against Zfp790 | inactive: -0.334 |
| GGUGGUUUGAAAAAAGUCATT against Mycbpap | inactive: -1.63 |

Three records drawn at random from the list so far, as already listed:

| Sequence | z-score |
| --- | --- |
| GAAUCCUACGGUUGAAUAUTT against Prmt3 | inactive: -0.432 |
| CGUGUGUUUUACCCUAAAATT against Zfp947 | inactive: 0.404 |
| GCCAGUUUGUUACACGCAATT against Fam135a | inactive: 1.28 |
